A short description of this data set: Isothermal Titration Calorimetry (ITC) of peptoid-heparin binding. The method, then: For Table 3, binding constants and other thermodynamic parameters were determined for the chiral 12-mer analogs by ITC. The S12mer data represents 3 trials, and the R12mer represents 2 trials. Values for the parameters Kb, AH and N are obtained by fitting the titration curves. AG is calculated from ΔG=−RTlnKb and ΔS is calculated from […].
Isothermal Titration Calorimetry (“ITC”) was used to determine directly ΔH, the binding constant and stoichiometry, and ΔS was then calculated from the binding constant and ΔH for the binding reaction between heparin and the peptoids produced in this study. In a typical ITC experiment, peptoid in buffer solution was placed in the sample cell and an equivalent quantity of the same buffer solution was placed in the reference cell. Heparin in buffer solution was placed in the titration syringe. Heparin titrant was added to the sample cell in 10 μL aliquots with 210 sec. between aliquots.
FIG. 11 presents the isotherm for the endothermic reaction. The resulting integrated titration curve is given in FIG. 12 for a reaction between 0.20 mM peptoid in the sample cell and 0.25 mM heparin in the titration syringe.

Where [1] appears, read: Table 3, ITC, stoichiometry from fit of titration curves, S12mer 3 trials, R12mer 2 trials.

Regarding H-[N(Orn)-N(Et)-N(Spe)]3-NH2 [s9merEt], where the note is “Table 4, ITC, stoichiometry”, the N worked out at 17 ± 0.9.

As to H-[N(Arg)-N(Et)-N(Spe)]3-NH2 [s9merEtG], under “Table 4, ITC, stoichiometry”, the N amounted to 20 ± 1.4.

The substance H-[N(Orn)-N(Bu)-N(Spe)]2-NH2 [s6mer] displayed a N (Table 4, ITC, stoichiometry) of 18 ± 2.0.

In the case of “H-[N(Cad)G-N(Bu)-N(Spe)]3-NH2 [s9merCadG]”, for the setting “Table 4, ITC, stoichiometry”, the N worked out at 20 ± 1.4.

H-[N(Orn)-N(Bz)-N(Spe)]3-NH2 [s9merBz] registered a N (Table 4, ITC, stoichiometry) of 14 ± 0.2.

Turning to H-[N(Orn)-N(Bu)-N(Spe)]-NH2 [s3mer], the N (Table 4, ITC, stoichiometry) came out at 25 ± 4.8.

Take H-[N(Orn)-N(Bu)-N(Spe)]4-NH2 [s12mer]: the N was 19.48 under setting [1] and 19.5 ± 2.7 (Table 4, ITC, stoichiometry).

Consider H-[N(Arg)-N(Bu)-N(Spe)]-NH2 [s3merG], for which the N (Table 4, ITC, stoichiometry) was found to be 25 ± 2.1.

For the setting “Table 4, ITC, stoichiometry”, “H-[N(Orn)-N(Orn)-N(Spe)]4-NH2 [s9merOrnOrn]” returned an N of 8.7 ± 0.9.

Consider H-[N(Arg)-N(Bu)-N(Spe)]2-NH2 [s6merG], for which the N (Table 4, ITC, stoichiometry) came out at 17 ± 0.7.

Substance H-[N(Arg)-N(Bu)-N(Spe)]3-NH2 [s9merG] showed a N (Table 4, ITC, stoichiometry) of 20 ± 3.5.

On to H-[N(Orn)-N(Pr)-N(Spe)]3-NH2 [s9merPr], for which, under “Table 4, ITC, stoichiometry”, the N is 17 ± 0.9.

Regarding H-[N(Orn)-N(Bu)-N(Spe)]3-NH2 [s9mer], the N (Table 4, ITC, stoichiometry) amounted to 18 ± 2.7.

With H-[N(Orn)-N(Bu)-N(Rpe)]4-NH2 [r12mer], the N is on record as 16.26 under setting [1] and 16 ± 0.9 (Table 4, ITC, stoichiometry).

In turn, H-[N(Orn)-N(Me)-N(Spe)]3-NH2 [s9merMe] registered a N (Table 4, ITC, stoichiometry) of 15 ± 0.4.

In turn, H-[N(Orn)-N(Bu)-N(Spe)]4-NH2 [s12merG] returned a N (Table 4, ITC, stoichiometry) of 19.7 ± 5.7.

Consider H-[N(Lys)-N(Bu)-N(Spe)]3-NH2 [s9merLys], for which the N (Table 4, ITC, stoichiometry) is 16 ± 0.1.

H-[N(Arg)-N(Pr)-N(Spe)]3-NH2 [s9merPrG] gave a N (Table 4, ITC, stoichiometry) of 24 ± 0.9.

For “H-[N(Lys)G-N(Bu)-N(Spe)]3-N2 [s9merLysG]”, the N (Table 4, ITC, stoichiometry) was 17 ± 3.4.

H-[N(Cad)-N(Bu)-N(Spe)]3-NH2 [s9merCad] had a N (Table 4, ITC, stoichiometry) of 21.9 ± 0.3.

Under “Table 4, ITC, stoichiometry”, “H-[N(Orn)-N(All)-N(Spe)]3-NH2 [s9merAll]” gave an N of 19.3 ± 2.4.
